Results taken from publication PMC12104430.
These are yes or no findings as the source states them, for the method shown. In cells and extracts the contact can be indirect. Some binding calls cover weakened binding; strength is not graded here. Tags and fused reporters may be left off the sequences shown.

Chains of the proteins cited; added tags and fusions are not shown. Residues count along the entry.
UniProt P14778, residues 18-569: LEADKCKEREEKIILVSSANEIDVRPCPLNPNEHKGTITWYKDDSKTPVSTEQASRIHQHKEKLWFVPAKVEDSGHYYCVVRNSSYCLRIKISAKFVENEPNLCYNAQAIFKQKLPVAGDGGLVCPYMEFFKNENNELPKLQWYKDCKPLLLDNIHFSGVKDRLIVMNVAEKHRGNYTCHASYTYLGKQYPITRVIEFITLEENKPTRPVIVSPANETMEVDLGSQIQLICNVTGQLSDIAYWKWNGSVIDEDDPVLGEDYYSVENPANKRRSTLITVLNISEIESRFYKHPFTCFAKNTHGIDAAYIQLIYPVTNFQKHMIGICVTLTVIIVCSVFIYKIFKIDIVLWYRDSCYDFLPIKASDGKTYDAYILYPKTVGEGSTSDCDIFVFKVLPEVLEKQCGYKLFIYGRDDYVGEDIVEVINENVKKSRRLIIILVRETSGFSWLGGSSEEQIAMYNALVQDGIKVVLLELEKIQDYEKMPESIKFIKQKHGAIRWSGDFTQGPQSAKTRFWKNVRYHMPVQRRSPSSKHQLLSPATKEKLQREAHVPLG

Target: Interleukin-1 receptor 1 (Flag-IL1R1) (human) (UniProt P14778)
Test: co-IP; HEK293T cells transiently transfected with HA-OMD and Flag-IL1R1; lysed in EBC buffer (50 mmol/L Tris-HCl pH 8.0, 120 mmol/L NaCl, 0.5% Nonidet P-40), sonicated; lysate pre-cleared with protein A/G Sepharose, incubated with anti-Flag or anti-HA agarose beads 2 h at 4 °C; washed 4 times with NETN buffer; immunoblot

- binding: binds
B1: Osteomodulin (HA-OMD) (protein, UniProt Q99983 21-421)
chain: QYETYQWDEDYDQEPDDDYQTGFPFRQNVDYGVPFHQYTLGCVSECFCPTNFPSSMYCDNRKLKTIPNIPMHIQQLYLQFNEIEAVTANSFINATHLKEINLSHNKIKSQKIDYGVFAKLPNLLQLHLEHNNLEEFPFPLPKSLERLLLGYNEISKLQTNAMDGLVNLTMLDLCYNYLHDSLLKDKIFAKMEKLMQLNLCSNRLESMPPGLPSSLMYLSLENNSISSIPEKYFDKLPKLHTLRMSHNKLQDIPYNIFNLPNIVELSVGHNKLKQAFYIPRNLEHLYLQNNEIEKMNLTVMCPSIDPLHYHHLTYIRVDQNKLKEPISSYIFFCFPHIHTIYYGEQRSTNGQTIQLKTQVFRRFPDDDDESEDHDDPDNAHESPEQEGAEGHFDLHYYENQE
